No constants are given. Whether binding was seen depends on the method and setting. Some binding calls cover weakened binding; strength is not graded here.
Biological target: mouse Ten4 full length, wild type, isoform A1B1, on cells (mouse) (UniProt Q3UHK6)
Experiment: cell-cell aggregation assay

Chains of the proteins cited; added tags and fusions are not shown.
UniProt Q3UHK6: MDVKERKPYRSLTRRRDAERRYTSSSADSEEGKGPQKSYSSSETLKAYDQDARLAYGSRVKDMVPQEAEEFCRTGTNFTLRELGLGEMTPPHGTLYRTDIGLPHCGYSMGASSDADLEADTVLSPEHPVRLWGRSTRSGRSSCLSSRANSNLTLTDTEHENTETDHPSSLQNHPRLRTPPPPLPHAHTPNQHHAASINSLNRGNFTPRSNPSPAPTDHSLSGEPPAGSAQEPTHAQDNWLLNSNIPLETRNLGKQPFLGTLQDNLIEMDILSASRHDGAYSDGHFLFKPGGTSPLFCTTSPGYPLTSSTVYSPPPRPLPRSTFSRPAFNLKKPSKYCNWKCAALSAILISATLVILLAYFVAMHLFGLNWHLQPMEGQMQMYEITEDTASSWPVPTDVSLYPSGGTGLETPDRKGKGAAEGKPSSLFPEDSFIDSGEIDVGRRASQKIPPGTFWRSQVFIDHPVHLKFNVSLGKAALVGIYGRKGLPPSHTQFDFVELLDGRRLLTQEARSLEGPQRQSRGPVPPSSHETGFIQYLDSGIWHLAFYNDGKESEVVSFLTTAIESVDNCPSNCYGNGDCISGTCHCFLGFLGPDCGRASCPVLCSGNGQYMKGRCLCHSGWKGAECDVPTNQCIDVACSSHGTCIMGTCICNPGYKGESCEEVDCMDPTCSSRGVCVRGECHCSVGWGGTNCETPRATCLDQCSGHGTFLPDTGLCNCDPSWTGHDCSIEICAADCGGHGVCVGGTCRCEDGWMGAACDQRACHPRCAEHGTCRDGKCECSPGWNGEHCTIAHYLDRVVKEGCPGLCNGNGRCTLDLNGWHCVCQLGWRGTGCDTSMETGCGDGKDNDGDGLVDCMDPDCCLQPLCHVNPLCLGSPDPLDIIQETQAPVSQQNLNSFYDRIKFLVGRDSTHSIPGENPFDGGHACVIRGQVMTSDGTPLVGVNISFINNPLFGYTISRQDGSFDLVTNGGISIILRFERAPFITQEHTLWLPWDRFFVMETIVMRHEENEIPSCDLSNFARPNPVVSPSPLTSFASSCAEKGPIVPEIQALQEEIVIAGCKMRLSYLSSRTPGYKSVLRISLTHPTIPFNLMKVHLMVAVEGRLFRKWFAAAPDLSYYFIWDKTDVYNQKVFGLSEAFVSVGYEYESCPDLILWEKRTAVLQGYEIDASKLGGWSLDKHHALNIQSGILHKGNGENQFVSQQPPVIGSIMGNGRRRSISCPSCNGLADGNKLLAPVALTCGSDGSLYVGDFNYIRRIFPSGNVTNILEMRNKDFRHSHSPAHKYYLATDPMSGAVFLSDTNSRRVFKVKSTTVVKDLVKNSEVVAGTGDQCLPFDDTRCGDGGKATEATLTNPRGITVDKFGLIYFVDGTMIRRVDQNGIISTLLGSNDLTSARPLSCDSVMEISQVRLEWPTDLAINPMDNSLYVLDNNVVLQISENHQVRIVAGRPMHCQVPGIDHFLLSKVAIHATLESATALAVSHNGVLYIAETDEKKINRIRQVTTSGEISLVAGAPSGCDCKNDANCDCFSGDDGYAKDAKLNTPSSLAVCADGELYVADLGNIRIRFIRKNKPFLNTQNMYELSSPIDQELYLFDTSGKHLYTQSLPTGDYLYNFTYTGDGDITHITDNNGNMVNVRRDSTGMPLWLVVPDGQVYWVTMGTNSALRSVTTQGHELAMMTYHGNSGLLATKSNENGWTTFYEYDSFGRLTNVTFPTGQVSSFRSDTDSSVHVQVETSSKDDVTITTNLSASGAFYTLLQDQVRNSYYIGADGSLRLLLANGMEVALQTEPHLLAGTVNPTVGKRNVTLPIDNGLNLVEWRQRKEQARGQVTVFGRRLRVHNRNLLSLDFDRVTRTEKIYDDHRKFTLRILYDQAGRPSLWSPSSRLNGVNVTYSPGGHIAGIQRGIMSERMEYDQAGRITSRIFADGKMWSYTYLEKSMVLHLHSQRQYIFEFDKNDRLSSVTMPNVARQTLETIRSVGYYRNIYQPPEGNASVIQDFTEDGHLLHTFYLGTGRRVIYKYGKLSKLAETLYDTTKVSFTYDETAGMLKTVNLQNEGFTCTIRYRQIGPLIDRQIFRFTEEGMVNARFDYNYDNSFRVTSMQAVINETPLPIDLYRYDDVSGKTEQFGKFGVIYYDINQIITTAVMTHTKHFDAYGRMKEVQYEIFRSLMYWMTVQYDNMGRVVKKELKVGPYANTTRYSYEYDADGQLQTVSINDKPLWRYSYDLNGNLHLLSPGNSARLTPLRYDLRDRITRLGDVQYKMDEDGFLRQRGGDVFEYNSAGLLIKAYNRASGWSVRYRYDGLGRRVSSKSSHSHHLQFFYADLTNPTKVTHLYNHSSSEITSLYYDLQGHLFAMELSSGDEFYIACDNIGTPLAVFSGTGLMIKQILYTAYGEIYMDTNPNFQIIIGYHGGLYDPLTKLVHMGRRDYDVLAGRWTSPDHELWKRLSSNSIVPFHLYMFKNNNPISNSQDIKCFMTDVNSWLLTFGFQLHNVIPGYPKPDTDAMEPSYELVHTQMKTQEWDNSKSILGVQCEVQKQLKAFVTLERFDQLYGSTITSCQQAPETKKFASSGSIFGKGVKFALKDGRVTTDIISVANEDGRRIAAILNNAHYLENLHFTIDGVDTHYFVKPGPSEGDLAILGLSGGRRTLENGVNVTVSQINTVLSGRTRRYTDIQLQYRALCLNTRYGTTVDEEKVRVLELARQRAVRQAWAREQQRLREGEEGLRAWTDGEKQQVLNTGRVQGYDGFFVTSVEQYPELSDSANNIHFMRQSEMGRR

binding: binds
Substance: mouse Ten4 full length, wild type, isoform A1B1, on cells (from UniProt Q3UHK6 1-2771) (receptor)

— doi:10.1101/2025.09.09.671438
